Experimental data: article PMC11908827, “PpERF17 alleviates peach fruit postharvest chilling injury under elevated CO2 by activating jasmonic acid and γ-aminobutyric acid biosynthesis”
Construct, isoform or probe ends are uncertain for at least one entry.

Test system: PpMYC2.1
Assay: EMSA
Conditions: Chemiluminescent EMSA Kit (Beyotime); pH and temperature not stated; recombinant protein; protein details: GST (N-terminal, pGEX-4T-1); label: biotin

Sequence	binding result
AATTACACACAATGCCACATGTCCACCTCCGGTAAT (double strand) [PpMYC2.1-PpGAD probe]	binds
CAAAGAGTTATTAGGCACGTTGTGCCAAAACATTTA (double strand) [PpMYC2.1-PpAOS probe]	binds
GAGAAGACAAGGGGACACATGTCCTTTGAACCCAAC (double strand) [PpMYC2.1-Pp13S-LOX probe]	binds
GAGAATCTCGATTGCCACGTGTCTTATTCCAGATAA (double strand) [PpMYC2.1-PpOPR3 probe]	binds
GAGGAATGAACAACACACGTGCTTGAATCACATATT (double strand) [PpMYC2.1-PpERF17 probe]	binds
